Laboratory results from PubChem BioAssay AID1439 (NMMLSC, 2008).
About 770 (0.35%) of roughly 220,000 compounds were called active. Inconclusive means that the source gave no clear call. Such entries were picked first, then a sample of the others. Rule as the data show it: active = binding response below about 49% or above about 150%; inconclusive = no clear call, values can overlap the other calls; inactive = in between.

Chains of the proteins cited; added tags and fusions are not shown.
UniProt P09471, whole entry, looked up: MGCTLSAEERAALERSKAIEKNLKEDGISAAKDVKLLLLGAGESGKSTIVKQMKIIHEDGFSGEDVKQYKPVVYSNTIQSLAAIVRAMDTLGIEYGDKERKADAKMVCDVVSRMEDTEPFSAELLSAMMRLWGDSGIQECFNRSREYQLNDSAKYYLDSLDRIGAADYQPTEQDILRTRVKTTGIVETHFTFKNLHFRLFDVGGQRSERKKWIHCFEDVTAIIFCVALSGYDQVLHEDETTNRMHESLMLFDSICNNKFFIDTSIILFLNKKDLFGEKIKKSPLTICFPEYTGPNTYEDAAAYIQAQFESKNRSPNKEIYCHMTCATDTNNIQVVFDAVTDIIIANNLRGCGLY

target: Guanine nucleotide-binding protein G(o) subunit alpha (Homo sapiens) (UniProt P09471); experiment: RGS7-Galphao binding modulators, primary screen, biochemical, multiplexed bead flow cytometry (AID 1439); settings: at 10 µM, actives lie on both sides;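 also: fluorescent Galphao held in activated GDP-AlF4 state binding bead-coupled RGS7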

SMILES	binding response (% of control)
CCOc1ccc(C2C(C(=O)c3ccc(C)o3)=C(O)C(=O)N2CCCN(CC)CC)cc1 (stereo not given)	inconclusive: 85.5%
Cc1cccc(-c2ncc(CN3CCN(CCC(C)C)C(CCO)C3)cn2)c1 (stereo not given)	inactive: 109%
CCOc1ccc(-c2nc(N)ncc2-c2ccccc2OC)c(O)c1	inconclusive: 122%
N#Cc1ccc(NC(=O)Nc2ccc(Oc3ccc(NC(=O)Nc4ccc(C#N)cc4)cc3)cc2)cc1	inconclusive: 138%
N#C/C(=C/c1cn(CC(=O)O)c2ccccc12)C(=O)NCc1ccccc1	inactive: 97.6%
O=C(CSc1nnnn1-c1ccc(F)cc1)NNC(=O)c1ccco1	inconclusive: 96.6%
Cn1ncc([N+](=O)[O-])c1C(=O)Nc1ccc(-c2nc3ccccc3o2)cc1	inactive: 99%
Cc1c(/C(O)=C2/C(=O)C(=O)N(CCN(C)C)C2c2ccc(C(C)C)cc2)cnn1-c1ccccc1 (stereo not given)	inconclusive: 115%
Oc1ccccc1/C=N/NC(=S)NC1CC2CCC1C2 (stereo not given)	inconclusive: 187%
CN=c1scc(-c2ccccc2F)n1/N=C(\C)c1cccnc1	inconclusive: 112%
O=C(COC(=O)c1ccc[n+]([O-])c1)Nc1c(Br)cc([N+](=O)[O-])cc1Br	inconclusive: 104%
CCOC(=O)c1ccc[n+](C(C)C(=O)c2ccc(-c3ccccc3)cc2)c1 (stereo not given)	inactive: 98.7%
Cc1ccccc1CN1C[C@@H]2C[C@@H](c3cnc(N4CCOCC4)s3)N3CCC[C@@]23C1=O	inactive: 89.3%
COc1ccc(CNC(=O)COC(=O)/C=C/c2cccc(Br)c2)cc1OC	inconclusive: 83.6%
O=C(COC(=O)c1ccccc1C(=O)c1ccc(Cl)cc1)NCC1CCCO1 (stereo not given)	inconclusive: 92.6%
CN(Cc1ccon1)Cc1cn(C)nc1-c1ccc(Oc2ccccc2)cc1	inconclusive: 88.5%
Cn1cnc(S(=O)(=O)Nc2ccccc2N2CCOCC2)c1	inconclusive: 99.5%
O=C(Nc1ccccc1)N1CCN(Cc2ccc(Cl)cc2)CC1	inconclusive: 104%
CCCCC[n+]1ccn(-c2nc3ccccc3nc2[N-]S(=O)(=O)c2ccccc2)c1	inconclusive: 98.4%
CCNC(=S)NNC(=O)c1cc(Br)cs1	inactive: 101%
COc1ccc(NC(=O)COC(=O)CCNS(=O)(=O)c2ccccc2)cc1OC	inconclusive: 103%
Cc1ccccc1-n1nc(-c2cccnc2)cc1C(=O)N/N=C/c1ccncc1	inconclusive: 121%
CCOC(=O)c1c(NC(=O)c2cc(C)on2)c2cc([N+](=O)[O-])ccc2n1C	inconclusive: 136%

SMILES	binding response (% of control)
CSc1ccccc1NC(=O)CN(C)CC(=O)NCc1ccccc1	inconclusive: 113%
CCCn1nc(C(=O)OCC(=O)Nc2cccc(S(N)(=O)=O)c2)c2ccccc2c1=O	inconclusive: 76.4%
CC(CCc1ccccc1)NC(=O)CSc1nccc(=O)[nH]1 (stereo not given)	active: 10.9%
CN(Cc1cccs1)C(=O)CSc1nc(N)cc(N)n1	inconclusive: 87.5%
COc1cccc(/C=C/C(=O)Nc2ccc3[nH]c(=O)[nH]c3c2)c1	inconclusive: 91.8%
CC(C)(C)OC(=O)N1CCC[C@H]1c1nnc(SCc2ccc(Cl)cc2)o1	inconclusive: 103%
Cn1ccnc1SCC(=O)Nc1cc(S(=O)(=O)N2CCOCC2)ccc1Cl	inactive: 99.1%
O=[N+]([O-])c1ccc(-c2ccc(/C=N/O)o2)cc1	inconclusive: 105%
O=C1NC(N2CCOCC2)=N/C1=C/c1ccc2c(c1)OCO2	inactive: 102%
S=c1[nH]c(-c2ccccc2)cn1/N=C/c1cccnc1	inconclusive: 93.1%
COc1cc(CNc2ccc(S(N)(=O)=O)cc2)ccc1OCC(=O)NC1CCCCC1	inactive: 99.5%
O=S(=O)(c1ccc(Br)s1)N1CCc2ccccc2C1	inactive: 128%
Cc1cccc(Nc2nc(N)c([N+](=O)[O-])c(NCc3ccccc3)n2)c1	inconclusive: 116%
Cc1c(OCC(=O)N(C)C)ccc2c3c(c(=O)oc12)CCCCC3	inconclusive: 97.9%
Nc1c(C(=O)N/N=C/c2cccnc2)oc2nc(-c3ccccc3)cc(-c3ccco3)c12	inconclusive: 247%
O=C(O)c1ccc(-c2ccc(/C=N/Nc3ccc([N+](=O)[O-])cc3)o2)cc1	inconclusive: 89.7%
O=C(COc1ccccc1C(=O)N/N=C\c1ccc(O)c(O)c1)N/N=C/c1ccc(O)c(O)c1	active: 13.6%
CCOc1ccc(NS(=O)(=O)c2ccc(C)c(C(=O)NCCCn3ccnc3)c2)cc1	inactive: 101%
COc1ccc(/C=C(/CC(=O)NCc2ccc(Cl)cc2)c2nc3ccccc3s2)cc1	inactive: 102%
O=C(NNC(=S)Nc1ccccc1C(F)(F)F)C1CC1	inconclusive: 101%
O=C(CSc1nnc(COc2ccccc2Cl)o1)NC(=O)NCc1ccco1	inconclusive: 144%
CCn1c(SCC(=O)Nc2cc(C)on2)nnc1-c1cccs1	inactive: 96.7%
CN(C(=O)COC(=O)c1cc(-c2ccco2)nc2ccccc12)C1CCS(=O)(=O)C1 (stereo not given)	inconclusive: -18.5%

SMILES	binding response (% of control)
CCc1nc2ccccc2c(=O)n1NC(=O)c1c(O)c2ccccc2n(CC)c1=O	inactive: 101%
Cc1ccc(C(C(=O)NC2CCCC2)N(C(=O)Cc2cccs2)c2cccc(C)c2C)o1 (stereo not given)	inactive: 97%
O=C(CN1CCN(C2CCCCC2)CC1)Nc1cccc2ccccc12	inconclusive: 107%
COc1ccccc1-c1nn2c(=O)cc(C)nc2s1	inactive: 102%
CC(Sc1cnccn1)C(=O)O (stereo not given)	inactive: 98.9%
CC(=O)Nc1ccc(S(=O)(=O)Nc2nc3ccccc3nc2Nc2ccc(N)cc2)cc1	inconclusive: 104%
Cc1cc(C)n2cc(CSc3ncn[nH]3)nc2n1	inconclusive: 121%
O=C(Cn1nc(C(=O)O)c2ccccc2c1=O)Nc1ccc2c(c1)C(=O)c1ccccc1C2=O	inconclusive: 167%
N#C/C(=C(/O)c1cccc(F)c1)c1nc2ccccc2s1	inconclusive: 85.9%
CNC(=S)N/N=C/c1c(C(=O)OC)cnn1-c1ccc(F)cc1F	inconclusive: 129%
Cc1ccc(S(=O)(=O)N(C)CC(=O)OCC(=O)NC(=O)NC(C)C)cc1	inconclusive: 96.2%
Cn1c(=O)c2c(=O)cc(N)[nH]c2n(C)c1=O	inconclusive: 84.8%
CC(C)n1c(=S)[nH]c2cc(C(F)(F)F)ccc21	inconclusive: -42.2%
O=C(Cc1ccsc1)Nc1ccc(S(=O)(=O)C(F)F)cc1	inconclusive: 106%
Cc1cc(=O)n2c(n1)NC(=NCc1ccccc1)NC2c1ccccc1 (stereo not given)	inconclusive: 104%
C1CCc2nc3c(nc2C1)CCCC3	inconclusive: -22.1%
CSc1ccc(CNC(=O)c2c(C)noc2C)s1	inconclusive: 126%
O=C(NCc1ccccc1)c1ccc2nc(N3CCOCC3)sc2c1	inconclusive: 116%
COc1ccc(-n2c(=O)c3c4c(sc3n3c(=S)[nH]nc23)CCC4)cc1	inconclusive: -654%
CCCCNC(=O)c1c(CSc2ccccc2)noc1C(=O)NCc1ccccc1	inconclusive: 103%
Cc1ccc(-c2cc(C(=O)N3CCCC3)no2)cc1	inactive: 94.6%
O=c1oc2ccccc2c(N2CCCC2)c1[N+](=O)[O-]	active: 157% [activator]
C/C(=N\NC(=O)CNC(=O)c1ccc2c(c1)OCCO2)c1ccco1	inconclusive: 275%

A second format for 2 compounds above.
SMILES | binding response (% of control)
O=C(Cc1ccsc1)Nc1ccc(S(=O)(=O)C(F)F)cc1 | inconclusive: 106%
Cc1cc(=O)n2c(n1)NC(=NCc1ccccc1)NC2c1ccccc1 (stereo not given) | inconclusive: 104%

Reformatted bar-delimited: five of the compounds above
SMILES | binding response (% of control)
CCc1nc2ccccc2c(=O)n1NC(=O)c1c(O)c2ccccc2n(CC)c1=O | inactive: 101%
CC(=O)Nc1ccc(S(=O)(=O)Nc2nc3ccccc3nc2Nc2ccc(N)cc2)cc1 | inconclusive: 104%
O=C(NCc1ccccc1)c1ccc2nc(N3CCOCC3)sc2c1 | inconclusive: 116%
COc1ccc(-n2c(=O)c3c4c(sc3n3c(=S)[nH]nc23)CCC4)cc1 | inconclusive: -654%
CCCCNC(=O)c1c(CSc2ccccc2)noc1C(=O)NCc1ccccc1 | inconclusive: 103%

Continuation:

SMILES	binding response (% of control)
O=[N+]([O-])c1ccc(Sc2ncccn2)c([N+](=O)[O-])c1	inconclusive: 130%
COc1ccc2[nH]c(C(=O)NCCN3CCOCC3)cc2c1	inconclusive: 74%
O=C(O)c1ccccc1NCc1ccco1	inconclusive: 87.1%
CC(CO)(CO)NC(=O)c1ccc(=O)[nH]n1	inconclusive: 108%
COc1ccc(C(=S)N2CCC(C(N)=O)CC2)cc1Br	inconclusive: 123%
Cc1[nH]n(-c2ccccc2)c(=O)c1C=NCC1CCCO1 (stereo not given)	inconclusive: 98%
O=C1c2ccc(-c3ccc4c(c3)C(=O)N(CCCO)C4=O)cc2C(=O)N1CCCO	inconclusive: 81.9%
CC(C)(C)NC(=O)C(c1ccncc1)N(Cc1cccs1)C(=O)c1csnn1 (stereo not given)	inconclusive: 98%
Cc1ccc(-n2c(C)nn(CCOc3ccccc3)c2=O)cc1	inconclusive: 93.7%
CC(C)(C)c1nc(NC(=O)Nc2ccccc2)sc1Br	inconclusive: 96%
CCC(C)NCCOc1ccccc1C (stereo not given)	inconclusive: 88.4%
COc1cc(-c2noc(CCCC(=O)Nc3ccc(C(N)=O)cc3)n2)cc(OC)c1OC	inconclusive: 105%
Cn1ncn2c(=O)c3c(nc12)-c1ccccc1CC31CCCC1	inconclusive: 116%
CC(C)(C)NC(=O)CSc1nc(-c2ccc(F)cc2)cs1	inconclusive: 99.7%
COc1ccc(OC)c(-c2csc(NC(=O)C3=NN(c4ccccc4)C(=O)CC3)n2)c1	inconclusive: 104%
N/C(=N\S(=O)(=O)c1cc(C(F)(F)F)cc(C(F)(F)F)c1)c1cccs1	inconclusive: 119%
CSCCC(NC(N)=O)C(=O)Nc1ccc(F)c(Cl)c1 (stereo not given)	inconclusive: 65.8%
O=C1Nc2ccc([N+](=O)[O-])cc2OC1CCN1CCCC1 (stereo not given)	inconclusive: 101%
CCN(C(=O)CN1CC(C)OC(C)C1)c1c(N)n(Cc2ccccc2)c(=O)[nH]c1=O (stereo not given)	inactive: 97.9%
Cc1nc(C(=O)N2CCCC(C(=O)c3ccc(Cl)cc3)C2)cs1 (stereo not given)	inconclusive: 84%
CCOc1cc(C(=S)N2CCOCC2)ccc1OS(=O)(=O)c1ccc(NC(C)=O)cc1	inactive: 114%
